# Measured values as given in PubChem BioAssay AID1347076 (National Center for Advancing Translational Sciences (NCATS), 2019).
# Hit rate of the full screen: of about 400,000 compounds, about 13,000 (3.2%) were called active. Inconclusive results, whose numbers are uncertain, are shown with a selection of clear calls. Calls follow the shape of the dose curve; as a rule, active = well fitted cell-killing curve with a large enough effect; inconclusive = small, poorly fitted or top-dose-only effect, or effect the other way; inactive = flat fitted curve, though single readings scatter. Potencies of inconclusive entries are doubtful fits and often do not repeat.
# Experiment: qHTS assay for MDR1-selective chemotherapeutics: Primary screen using the drug-selected MDR subline cells KB-V1; also: nearly all actives have a fitted effect of over 60% in size
# Conditions: KB-V1 MDR cells viability, CellTiter-Glo, 72 h; activity change, negative = cytotoxicity: at 46.1 µM (top of the series)
# Summary of the method: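 Compound-treated KB-V1 multidrug-resistant cells, 72 h, 37 degrees C; viability by CellTiter-Glo. Fitted qHTS curves give the values.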
# % is scaled to controls: 0 for no effect and ±100 for the full control effect; potency is read from the fitted curve at half-maximal effect.
SMILES,"activity change, negative = cytotoxicity",Potency
N#Cc1c(-c2ccc(Cl)cc2)c2c([nH]c1=O)-c1ccccc1OC2,inactive: 7.88%,
CCCCCc1c(CC)ncn1CCc1ccccc1OC,,"inconclusive: 29.1 µM [cytotoxic, single point]"
CC(=O)Nc1ccc(NC(=O)c2cccc(Oc3ccccc3)c2)cc1,,"inconclusive: 25.9 µM [cytotoxic, single point]"
COc1ccc(CCN2C(=S)N(C)C(=O)C2CC(=O)Nc2ccc(OC)cc2)cc1 (stereo not drawn),inactive: -25%,
NS(=O)(=O)c1ccc2ccccc2c1,,"inconclusive: 25.9 µM [rising, partial curve, poor fit]"
CCOc1ccc(S(=O)(=O)N2CCN(CC(O)COc3cccc([N+](=O)[O-])c3)CC2)cc1 (stereo not drawn),,"inconclusive: 16.4 µM [cytotoxic, partial curve]"
COc1cc(C(=O)N/N=C/c2ccsc2C)cc(OC)c1OC,,active: 0.58 µM
O=C(COCc1cc(-c2cccs2)on1)N1CCN(c2cccc(Cl)c2)CC1,,"inconclusive: 29.1 µM [cytotoxic, single point]"
O=C1CCC(C(=O)Nc2cccc3ccccc23)N1 (stereo not drawn),,"inconclusive: 29.1 µM [rising, single point]"
COC(=O)[C@@]1(Sc2ccc(C)cc2)CC(=O)N[C@@H]1c1ccco1,,"inconclusive: 20.6 µM [cytotoxic, partial curve]"
COc1ccc(S(=O)(=O)Cc2ccc(C(=O)N3CCN(Cc4ccccc4)CC3)o2)cc1,,"inconclusive: 4.11 µM [rising, full curve, poor fit]"
COC(=O)c1ccc(NC(=O)c2ccc(N(C)S(C)(=O)=O)cc2)cc1,,"inconclusive: 29.1 µM [cytotoxic, single point]"
Cn1c(O)c(N=NC(=O)CNC(=O)/C=C/c2ccccc2)c2ccccc21,,"inconclusive: 0.231 µM [cytotoxic, full curve, poor fit]"
O=C(COc1ccccc1C(=O)Nc1ccccc1)c1ccc(Br)cc1,,"inconclusive: 16.4 µM [cytotoxic, single point]"
CCc1nnc(N/N=C/c2ccccc2Cl)n1N,inactive: 1.82%,
COc1cccc(-c2ccc(SCC(=O)NC3CCCC3)nn2)c1,,"inconclusive: 25.9 µM [cytotoxic, partial curve, poor fit]"
CCc1ccc2[nH]c(=O)c(CN(CCN3CCCC3)C(=O)NC3CCCCC3)cc2c1,inactive: 19.3%,
COCCCNC(=O)c1c(N)n(-c2ccccc2)c2nc3ccccc3nc12,,"inconclusive: 20.6 µM [cytotoxic, single point]"
Cn1c(-c2sc3cc(C(F)(F)F)cnc3c2-c2cccnc2)n[nH]c1=S,inactive: 26%,
Cn1ccsc1=NC(=O)c1ccc(CS(C)(=O)=O)cc1,,"inconclusive: 29.1 µM [rising, single point]"
CC1CCCN(C(=O)CSc2cnc3ccccc3n2)C1 (stereo not drawn),,active: 9.2 µM
CCOC(=O)c1ccccc1NC(=O)/C(C)=C/C(=O)O,,"inconclusive: 29.1 µM [rising, single point]"
Fc1cccc(-c2nnn3c2nc(NCCc2ccccc2)c2ccccc23)c1,,"inconclusive: 11.6 µM [rising, partial curve, poor fit]"
Cc1cccc(C(=O)N2CCC(=O)N(C(COCc3cccc(Cl)c3)Cc3ccccc3)CC2)c1 (stereo not drawn),inactive: 7.75%,

SMILES,"activity change, negative = cytotoxicity",Potency
COc1cc(C)cc2oc(=O)c(CC(=O)NCCc3ccc(Cl)cc3)c(C)c12,,"inconclusive: 29.1 µM [cytotoxic, single point]"
Cc1cccc2cc(C#N)c(NCCCn3ccnc3)nc12,,active: 14.6 µM
CC1=C(C(=O)N2CCOCC2)CC(CC(=O)NCCCN(C)C)C(=O)N1CCCN1CCCC1=O (stereo not drawn),inactive: 0.734%,
COc1ccc(CC(=O)OC(C)C(=O)NC2CCCCC2C)cc1 (stereo not drawn),inactive: 19.5%,
CC(NCC(=O)Nc1ccccc1C(=O)NC1CC1)c1ccccc1Cl (stereo not drawn),,active: 18.4 µM
Cc1cccc(Cn2nc(-n3cccc3)c3c(C)cc(C)nc32)c1,inactive: -0.363%,
Cn1c(=O)c2c(nc(CN3CCN(c4ccccc4)CC3)n2CCN2CCOCC2)n(C)c1=O,,"inconclusive: 8.2 µM [cytotoxic, partial curve]"
O=C(Nc1ccc2oc(-c3ccncc3)nc2c1)c1ccccc1Cl,,"inconclusive: 5.17 µM [cytotoxic, full curve, poor fit]"
Cc1ccc(-c2nc(C#N)c(NCc3ccco3)o2)cc1,inactive: 12.8%,
COc1ccc(-n2c(C)nn(C)c2=O)cc1,inactive: 1.84%,
Oc1ccccc1CNc1cccc2cccnc12,inactive: -12.9%,
COc1cc2[nH]c(=O)n(CCCCCC(=O)NCCCN3CCC(C)CC3)c(=O)c2cc1OC,inconclusive: -28.3%,
CCCCOc1ccc(C(=O)N2CC(C)OC(C)C2)cc1 (stereo not drawn),inactive: 7.6%,
COc1ccc(NC(=O)C2Cc3ccccc3C(=O)O2)cc1 (stereo not drawn),inactive: 26.5%,
CCOC(=O)[C@]12CCCC=C1N(Cc1ccco1)C(=O)[C@H](CC(=O)NCCc1ccccc1OC)C2,,"inconclusive: 7.31 µM [cytotoxic, partial curve]"
COc1ccc(-c2noc(-c3cccnc3N3CCN(c4ccc(OC)cc4)CC3)n2)cc1,inactive: -3.95%,
N#C/C(=C/c1ccco1)c1nc2ccccc2s1,,"inconclusive: 25.9 µM [cytotoxic, single point]"
Cc1ccccc1-n1c(SCC(=O)c2c(N)n(C)c(=O)n(C)c2=O)nnc1-c1cccnc1,inactive: 5.52%,
COc1ccc(N=c2oc3cc(O)ccc3cc2C(=O)Nc2ccccn2)cc1OC,,"inconclusive: 29.1 µM [cytotoxic, single point]"
Cc1ccc(C)c(OCC(=O)N/N=C/c2c(C)nn(-c3ccccc3)c2Cl)c1C,,active: 8.2 µM
N#CCCN(C(=O)Nc1ccc(Cl)c(Cl)c1)c1ccccc1,,"inconclusive: 18.4 µM [cytotoxic, single point]"
COc1ccccc1Nc1nc(NCCCN(C)C)nc(N)c1[N+](=O)[O-],,"inconclusive: 1.03 µM [cytotoxic, full curve, poor fit]"
COc1ccc(CCNCC(O)Cn2c3ccccc3c3ccccc32)cc1OC (stereo not drawn),,"inconclusive: 18.4 µM [cytotoxic, single point]"
c1ccc(CC2CCN(C(c3cccs3)c3nnnn3C3CCCC3)CC2)cc1 (stereo not drawn),,"inconclusive: 20.6 µM [cytotoxic, single point]"

# 2 of these compounds in another layout:
SMILES	activity change, negative = cytotoxicity	Potency
N#C/C(=C/c1ccco1)c1nc2ccccc2s1		inconclusive: 25.9 µM [cytotoxic, single point]
Cc1ccccc1-n1c(SCC(=O)c2c(N)n(C)c(=O)n(C)c2=O)nnc1-c1cccnc1	inactive: 5.52%	
